From publication PMC7819943, “Rice protein-binding microarrays: a tool to detect cis-acting elements near promoter regions in rice”
The list shows a part of the results.

target: T1, OsSMF1 (Oryza sativa, UniProt Q6ZLB0 1-436); test: protein-binding microarray (RPBM); PBS, 2% BSA, 51.3 ng/ul salmon testes DNA, 50 uM zinc acetate, 200 nM TF, 25 C, 1 h; high values mean tight binding; settings: protein: recombinant; tags: N-terminal polyhistidine and DsRed monomer fusion (pET32a); chain copies: 2; label: CyDye5-dUTP incorporated in the synthesized complementary strand; 3' TTTTT single-stranded linker to array surface; dsDNA, one strand shown
T1 sequence: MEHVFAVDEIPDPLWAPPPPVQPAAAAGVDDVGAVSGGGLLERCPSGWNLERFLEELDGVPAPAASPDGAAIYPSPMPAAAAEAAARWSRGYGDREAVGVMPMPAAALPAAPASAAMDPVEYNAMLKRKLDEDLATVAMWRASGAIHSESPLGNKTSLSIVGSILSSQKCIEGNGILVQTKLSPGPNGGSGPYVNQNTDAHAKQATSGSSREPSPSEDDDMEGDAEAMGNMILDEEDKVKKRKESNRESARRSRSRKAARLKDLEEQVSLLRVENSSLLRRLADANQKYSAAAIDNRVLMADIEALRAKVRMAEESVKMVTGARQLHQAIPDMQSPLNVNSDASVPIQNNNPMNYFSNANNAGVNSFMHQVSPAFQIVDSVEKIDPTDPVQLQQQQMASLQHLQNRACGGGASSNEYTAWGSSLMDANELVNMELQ
Outline: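 For the binding signal, per-feature fluorescence intensity was read in arbitrary units on an Axon 4000B scanner. Before scanning, a 2% BSA-blocked custom Agilent array made double-stranded with Cy5-dUTP was washed after 1 h at 25 °C with 200 nM protein and 50 µM zinc acetate. The proteins were Ni–NTA-purified transcription factors with N-terminal polyhistidine and DsRed fusions, expressed in E. coli BL21-CodonPlus.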

Sequence | binding signal
GATTCGGTCGGGTACGCGACGTGACGCGGTCCGGCTGCACCGGAGTCACCTAGTGCAG | 5090 fluorescence intensity (a.u.)
GTTCACACAAATAATTGTTTGTGTTGGTATACTAAGGGCCCGGAGTCACCTAGTGCAG | 24300 fluorescence intensity (a.u.)
TCCGGGTGACGAGGCCAAACCTGGGCCTCAACCCCATTTTCGGAGTCACCTAGTGCAG | 3250 fluorescence intensity (a.u.)
CTAGCTCGTTACAAACAGTTGGTATCCCGACCATGCCACGCGGAGTCACCTAGTGCAG | 3390 fluorescence intensity (a.u.)
TATTGTTGTGACTTCCCTTGTCGCCAATGGCTTACTCATTCGGAGTCACCTAGTGCAG | 3270 fluorescence intensity (a.u.)
TTGAAAAGAAAGTTTTCTATAAGGGACCGAAGCTTTCACGCGGAGTCACCTAGTGCAG | 21600 fluorescence intensity (a.u.)
GTGATCCGGAAGAAAATGATCTGACACATATATTAAATATCGGAGTCACCTAGTGCAG | 3250 fluorescence intensity (a.u.)
GCAGCAGGTGGCGCCTCTAATTCCTCCTCCTCGCGCCCTACGGAGTCACCTAGTGCAG | 3600 fluorescence intensity (a.u.)
AGATCAAATCAACTCCATGAATTATGAATCATCATTCATGCGGAGTCACCTAGTGCAG | 3780 fluorescence intensity (a.u.)
GGGCAACCATGTAGACAACATCGCGTGGTTGATTGGCGGCCGGAGTCACCTAGTGCAG | 3150 fluorescence intensity (a.u.)
CCTTTCTTCTTCCGCCTCTCCTCCATGGCGTGACCTGACTCGGAGTCACCTAGTGCAG | 4320 fluorescence intensity (a.u.)
TTCCGCCCACAGCCGCCGGAGCCACCTCCCGCTCCTCTCCCGGAGTCACCTAGTGCAG | 3800 fluorescence intensity (a.u.)
GCGCGCGCGCACGGCGCCATCAATCGATTCTCACATCCATCGGAGTCACCTAGTGCAG | 7720 fluorescence intensity (a.u.)
TTACATCATATAATATATATGTGCCACGAGTGCCCTTGGTCGGAGTCACCTAGTGCAG | 4240 fluorescence intensity (a.u.)
TTCCAACAATGTGCTCTCATCCAGCACGTCAGCTCAGGCGCGGAGTCACCTAGTGCAG | 4700 fluorescence intensity (a.u.)
CTGTGGTGGGGCCAGGGGAGCTGATCGGGCTCGGACGGGACGGAGTCACCTAGTGCAG | 3370 fluorescence intensity (a.u.)
TCTCTCTCATCCTTCCAATCGATCTCCTCGACCTGCTATGCGGAGTCACCTAGTGCAG | 3440 fluorescence intensity (a.u.)
ACACACTGCAGACTTGCAGTTGTTGACTCATGTAACTTTACGGAGTCACCTAGTGCAG | 7080 fluorescence intensity (a.u.)
ATCATCCAAGGTGACGCATCGGCATCGCCTCTTCCAATCCCGGAGTCACCTAGTGCAG | 5880 fluorescence intensity (a.u.)
GGTAGGCTCCATCCGCGTAGGCATATGATTCTTGGATGATCGGAGTCACCTAGTGCAG | 4100 fluorescence intensity (a.u.)
GATCCAGCTTCATTTCTCAGTCTGACACTGGGCCCCACCTCGGAGTCACCTAGTGCAG | 5180 fluorescence intensity (a.u.)

Sequence | binding signal
CATGTAAACCATCGTCGTGGTCACGTGATCTCGTCGGTCACGGAGTCACCTAGTGCAG | 3430 fluorescence intensity (a.u.)
GGAGGAACGACGGCGACGGCGACGTGGACGTCGACGAGAGCGGAGTCACCTAGTGCAG | 4360 fluorescence intensity (a.u.)
CGATGACCACCACGGCGGCTGGTGACGACGACCACGGCGACGGAGTCACCTAGTGCAG | 5200 fluorescence intensity (a.u.)
TCAAAGGGTTTCATAAATTTTATGTATATTTTACAAGATTCGGAGTCACCTAGTGCAG | 5540 fluorescence intensity (a.u.)
CGTGTGCAGCCGCCAGTTTGCTACTTTGCAAACGCGTCAGCGGAGTCACCTAGTGCAG | 4470 fluorescence intensity (a.u.)
AGATAGAACAACTGCAGCTAGCGCTTCTATCTGAAACTCTCGGAGTCACCTAGTGCAG | 37700 fluorescence intensity (a.u.)
AGTTTTGTAAGTAGTCTATGTTTAATATTCCAAATTAATACGGAGTCACCTAGTGCAG | 3860 fluorescence intensity (a.u.)
CTTCTTTCACTTGCAGGGTAACTATACCTCCACGTCAGGGCGGAGTCACCTAGTGCAG | 19800 fluorescence intensity (a.u.)
GTGAGAGGGCCTCTGCACCGTCGGATCGCGATCGGACGGCCGGAGTCACCTAGTGCAG | 34500 fluorescence intensity (a.u.)
GAGTTGTGCAGCCAAGTCAGCTGCACATGGGGAACAAGCGCGGAGTCACCTAGTGCAG | 6520 fluorescence intensity (a.u.)
GATAGCCACAATCTCGCGTGTGTTCAGAGTGTTCTAGCTACGGAGTCACCTAGTGCAG | 3380 fluorescence intensity (a.u.)
TTGCATCAGGCCCTCTTCAATGATTTAAACAAACAATGGACGGAGTCACCTAGTGCAG | 52300 fluorescence intensity (a.u.)
GGCAGCGACAAGATCACAAAACACTGTAGAAAGGCTGCAGCGGAGTCACCTAGTGCAG | 3180 fluorescence intensity (a.u.)
CGGCCCAAAGTTTATCTTCTTTCCTTCTGACTTCTTTGTGCGGAGTCACCTAGTGCAG | 3190 fluorescence intensity (a.u.)
GCCAATCCGCCGCCGCCACCTCACCCAACCAATCCGCCGCCGGAGTCACCTAGTGCAG | 8690 fluorescence intensity (a.u.)
TGCTGCGCCTGTGGCTGCCATAAGTATATCGCACTCCACGCGGAGTCACCTAGTGCAG | 38300 fluorescence intensity (a.u.)
CGCCGGAGCTGGTCGTGCTGATGCCTGATGGCCTCACACCCGGAGTCACCTAGTGCAG | 3330 fluorescence intensity (a.u.)
TGGAGGAGGTGGTGGTGGTGGTAGTAGTAGTACGCCGGGGCGGAGTCACCTAGTGCAG | 3620 fluorescence intensity (a.u.)
GGATGGTGGCAGCGGGACTGAAAGAGTCACGGTGGTGGAGCGGAGTCACCTAGTGCAG | 3580 fluorescence intensity (a.u.)
GTTAATGATATGTCATGTTTGCATGATATTTAAAATACTCCGGAGTCACCTAGTGCAG | 3500 fluorescence intensity (a.u.)
CACAGTGCACGCACGCAGCTACAAAGATGTCGTACGACCACGGAGTCACCTAGTGCAG | 3260 fluorescence intensity (a.u.)

Rewritten with each value named: part of the list above.
GATCCAGCTTCATTTCTCAGTCTGACACTGGGCCCCACCTCGGAGTCACCTAGTGCAG
  binding signal = 5180 fluorescence intensity (a.u.)
CGATGACCACCACGGCGGCTGGTGACGACGACCACGGCGACGGAGTCACCTAGTGCAG
  binding signal = 5200 fluorescence intensity (a.u.)
AGATAGAACAACTGCAGCTAGCGCTTCTATCTGAAACTCTCGGAGTCACCTAGTGCAG
  binding signal = 37700 fluorescence intensity (a.u.)
